Reference: PubChem BioAssay AID1053208 (Peter MacCallum Cancer Centre, 2014)

Test: 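Synthetic lethal interactions between gene loss and doxorubicin in osteosarcoma cells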 (primary screen)
System: mouse osteosarcoma cells, early-passage culture from an engineered mouse model of fibroblastic bone tumour
Reagents: siRNA pool against mouse genes, 40 nM
Time to read-out: about 120 h (48 h before drug, then 72 h with drug)
Conditions: doxorubicin 100 nM for 72 h, roughly 30-40% inhibitory dose
Detection: 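Viability read as ATP luminescence after 72 h of 100 nM doxorubicin or none, duplicate wells averaged, scaled to non-targeting siRNA, then expressed as robust z-scores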
Reading the numbers: viability z-score with doxorubicin: higher = more viable cells under doxorubicin; viability z-score without drug: higher = more viable cells with knock-down alone
Active means: 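a pool counts as active when its viability z-score with doxorubicin is -2 or below and its z-score without drug lies between -2 and 2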
The whole screen tested about 17,000 reagents; this is a part drawn at random. 788 of all reagents (4.7%) count as active. 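Calls rest on z-score classes alone; an extra cut-off of viability at most 70% of control was not applied to them.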 Entries without a mark were called inactive. Further read-outs or replicates are left out here. Reagent sequences are not shown.

With knock-down of Slc25a27 the results were combined z-score class no change with or without drug; viability z-score with doxorubicin 0.22; viability z-score without drug -0.51.
Against Or8h7 (olfactory receptor family 8 subfamily H member 7) the deposit lists combined z-score class no change with or without drug; viability z-score with doxorubicin -0.67; viability z-score without drug -0.84.
After knock-down of Foxq1 (forkhead box Q1) the results were combined z-score class no change with or without drug; viability z-score with doxorubicin -0.79; viability z-score without drug -0.84.
Dhrs2 (dehydrogenase/reductase member 2) scored combined z-score class no change with or without drug; viability z-score with doxorubicin -1.12; viability z-score without drug 0.84.
Against Exosc3 (exosome component 3), the values are combined z-score class no change with or without drug; viability z-score with doxorubicin 0.67; viability z-score without drug 0.84.
Against Igf1r (insulin-like growth factor I receptor), the values are combined z-score class no change with or without drug; viability z-score with doxorubicin 0.67; viability z-score without drug 0.84.
Knock-down of Asb11 (ankyrin repeat and SOCS box-containing 11) resulted in: combined z-score class no change with or without drug; viability z-score with doxorubicin -0.45; viability z-score without drug -0.17.
Atcay (ATCAY kinesin light chain interacting caytaxin) scored combined z-score class no change with or without drug; viability z-score with doxorubicin 0.22; viability z-score without drug -0.51.
For Defb38 (defensin beta 38) the deposit lists combined z-score class no change with or without drug; viability z-score with doxorubicin 1.24; viability z-score without drug -1.01.
Depletion of Rnf38 (ring finger protein 38) came out at: combined z-score class no change with or without drug; viability z-score with doxorubicin 0.56; viability z-score without drug 0.67.
For Traip (TRAF-interacting protein), the entry reads combined z-score class no change with or without drug; viability z-score with doxorubicin -0.9; viability z-score without drug -1.52.
Against Arhgef39 (Rho guanine nucleotide exchange factor 39), the values are combined z-score class no change with or without drug; viability z-score with doxorubicin 0; viability z-score without drug 0.34.
Art2a (ADP-ribosyltransferase 2a) showed combined z-score class no change with or without drug; viability z-score with doxorubicin 0.9; viability z-score without drug -0.51.
Suclg1 (succinate-CoA ligase, GDP-forming, alpha subunit) scored combined z-score class no change with or without drug; viability z-score with doxorubicin 0; viability z-score without drug 0.34.
Depletion of Ffar1 (free fatty acid receptor 1) resulted in: combined z-score class no change with or without drug; viability z-score with doxorubicin -0.45; viability z-score without drug 0.51.
With knock-down of Paip2b (poly(A) binding protein interacting protein 2B), the record shows combined z-score class no change with or without drug; viability z-score with doxorubicin 0; viability z-score without drug -1.18.
Depletion of Cxcl9 (C-X-C motif chemokine ligand 9) gave: combined z-score class no change with or without drug; viability z-score with doxorubicin -0.45; viability z-score without drug -0.84.
After knock-down of Slc30a5, the record shows combined z-score class no change with or without drug; viability z-score with doxorubicin 0.22; viability z-score without drug -0.51.
After knock-down of Nrn1 (neuritin 1) the results were combined z-score class no change with or without drug; viability z-score with doxorubicin 0.45; viability z-score without drug 0.84.
With knock-down of Plch2 (phospholipase C, eta 2) the results were combined z-score class no change with or without drug; viability z-score with doxorubicin 0; viability z-score without drug 0.
Ppid (peptidylprolyl isomerase D (cyclophilin D)) gave combined z-score class no change with or without drug; viability z-score with doxorubicin -0.22; viability z-score without drug -0.51.
Knock-down of Cldn9 (claudin 9) came out at: combined z-score class no change with or without drug; viability z-score with doxorubicin 0; viability z-score without drug -0.51.
Against Cep20 (centrosomal protein 20) the deposit lists combined z-score class no change with or without drug; viability z-score with doxorubicin 0.11; viability z-score without drug 0.17.
Herc3 (hect domain and RLD 3) showed combined z-score class no change with or without drug; viability z-score with doxorubicin 0.67; viability z-score without drug 1.01.
With knock-down of Adora1 (adenosine A1 receptor), the record shows combined z-score class no change with or without drug; viability z-score with doxorubicin 0.9; viability z-score without drug 0.17.
After knock-down of Adh5 (alcohol dehydrogenase 5 (class III), chi polypeptide), the record shows combined z-score class no change with or without drug; viability z-score with doxorubicin 0.45; viability z-score without drug 1.52.
Depletion of Or13a26 (olfactory receptor family 13 subfamily A member 26) resulted in: combined z-score class no change with or without drug; viability z-score with doxorubicin 1.35; viability z-score without drug 1.52.
After knock-down of Pttg1 (pituitary tumor-transforming gene 1), the record shows combined z-score class no change with or without drug; viability z-score with doxorubicin 0; viability z-score without drug 0.84.
